Results published in PubChem BioAssay AID2685 (National Center for Advancing Translational Sciences (NCATS), 2010).
The other results are listed elsewhere or left out. Shown are side measurements of this screen, not its main read-out; they come without a call. Compounds called inactive in the main read-out are mostly missing here. Potencies come from curve fits of mixed quality, noted in brackets.

Experiment: qHTS Assay for Lipid Storage Modulators in Drosophila S3 Cells;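 as to cell number change: cells counted by Cell Tracker Red CMTPX staining in the red channel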
Settings: BODIPY lipid droplet fluorescence, 18-24 h; for cell number change: measured here: cell count max response, cells fed with added oleic acid
Excerpt: NIH Molecular Libraries Probe Production Centers Network [MLPCN] NIH Chemical Genomics Center [NCGC] MLPCN Grant: 1 R03 MH085686-01 Assay Submitter (PI): Beller, Mathias; Max-Planck-Institut fur Biophysikalische Chemie NCGC Assay Overview: Storing lipids as a reservoir for energy or the anabolism of elementary metabolites is a common feature of probably all cells and is conserved from bacteria to humans. The universal cellular lipid storage organelle is the so-called lipid storage droplet (LD). Although ubiquitous, LDs share a simple structure composed of a hydrophobic core that harbors the storage lipids, which is shielded by a droplet-specific phospholipid monolayer to which proteins are attached. The current model of LD biogenesis involves an incorporation of the lipid core into the membrane leaflets of the endoplasmic reticulum (ER) followed by a subsequent budding-like maturation of a LD, which ultimately pinches off. Once released, LD volume can increase by localized lipogenesis or fusion of existing droplet. Storage lipids are re-mobilized enzymatically by lipase activity. Lipase regulation in the adipocyte is heavily studied and involves multiple components including catecholamine signaling, the LD-associated proteins Perilipin and comparative gene identification (CGI-58) and at least two lipases named hormone sensitive lipase (HSL) and adipocyte triglyceride lipase (ATGL). LD regulation outside of the adipocyte is poorly understood and only few components are known. However, there is an urgent need to learn more about ectopic fat depots as mislocalized storage of lipids, for example in the liver or muscle, is an eminent health problem associated with insulin resistance or the metabolic syndrome. We developed a laser-scanning cytometer assay to enable 1,536-well screening and combined the results of the small molecules screen with an RNAi database based on lipid storage.
Triacsin C (Sigma-Aldrich T-4540), an inhibitor of long-chain fatty acyl CoA synthetase that blocks synthesis of triglycerides, was used as a positive control for lipid under-storage. A total of 23 nL of compound solution of different concentrations were transferred to the assay plates using a Kalypsys pin tool equipped with a 1,536-pin array containing 10-nL slotted pins (FP1S10, 0.457-mm diameter, 50.8 mm long; V&P Scientific). One microliter of oleic acid (400 uM) was added, and the plate was lidded with stainless steel rubber gasket lined lids containing pinholes. […] Fluorescence was detected by excitation of the fluorophores with a 488-nm laser on an Acumen Explorer (TTP Lab Tech). The total intensity in channel 2 (500-530 nm) reflected lipid droplet accumulation. Cells were detected using channel 3 (575-640 nm) with 5-um width and 100-um depth filters. The ratio of the number of objects in PMT channel 2 over the number of objects in PMT channel 3 was also calculated. Percent activity was computed relative to an internal control (100% inhibited lipid droplet deposition due to the presence of 20 uM Triacsin C), which was added to 32 wells/plate.

[1] = measured here: lipid fluorescence (Fed channel) AC50, cells fed with added oleic acid
[2] = measured here: cell number channel AC50, cells fed with added oleic acid

Row | Structure (SMILES) | cell number change [%] | AC50 [1] | AC50 [2]
1 | CCOC(=O)C1=C(O)C(Nc2nccs2)(C(F)(F)F)N=C1C (stereo not given) | -13.2 |  | 
2 | COc1ccc(C(=O)NCc2ccc(C)cc2)cc1S(=O)(=O)N1CCCC1 | -6.16 |  | 
3 | O=S(=O)(c1ccc(SCCOc2ccc(Cl)cc2)nc1)N1CCCC1 | -17.8 | 0.92 µM [rising, full curve, poor fit] | 
4 | COC(=O)CNC(=O)C1Cc2ccccc2CN1S(=O)(=O)c1cccs1 (stereo not given) | -16.6 |  | 
5 | Cc1nn(CC(=O)NCCc2cccs2)c(=O)c2cc3ccccc3n12 | 11.3 | 18.4 µM [rising, single point] | 
6 | CC(C)N(C(=S)Nc1cccc(S(=O)(=O)N(C)C)c1)c1ccccc1 | 2.45 |  | 
7 | O/N=C1/CCCCc2sccc21 | 1.81 |  | 2.59 µM [rising, partial curve, poor fit]
8 | COP1(=O)C[C@@H](O)[C@@H](O)[C@@H](COCc2ccccc2)O1 (stereo not given in full) | -32.5 |  | 
9 | CN(CCC#N)C(=O)COC(=O)c1ccc2c(c1)C(=O)N(C1CCCCC1)C2=O | -33.9 | 32.6 µM [falling, partial curve] | 
10 | COc1ccc(CNC(=O)C(C#N)c2nc3ccccc3nc2N2CCN(C)CC2)cc1 (stereo not given) | -34.3 | 2.06 µM [rising, partial curve] | 32.6 µM [falling, single point]
11 | O=C(c1cccc(S(=O)(=O)N2CCN(c3ccc(F)cc3)CC2)c1)N1CCCCCCC1 |  |  | 1.84 µM [rising, partial curve]
12 | O=C(NCC(=O)N(c1cccnc1)C(C(=O)NC1CCCC1)c1ccc(F)cc1)c1ccco1 (stereo not given) | -0.194 | 0.651 µM [rising, partial curve] | 
13 | COc1ccc(N2C(=O)CC(C3CCCO3)C2=O)cc1 (stereo not given) | 8.18 | 11.6 µM [rising, partial curve, poor fit] | 
14 | COc1cccc(CNc2cc(CSc3ccc(Cl)cc3)nc(C)n2)c1 | 138 | 2.91 µM [rising, partial curve] | 6.51 µM [rising, partial curve]
15 | O=C(C1CC1)N1CCc2cc(Br)cc(S(=O)(=O)NCCCN3CCCC3)c21 |  | 6.51 µM [falling, single point] | 
16 | Clc1cccc(CN2CCC(Cc3ccccc3)CC2)c1 | -35.4 |  | 13 µM [falling, partial curve, poor fit]
17 | COc1ccc(NC(=O)CN(C)C(=O)c2cccnc2Sc2ccc(C)c(C)c2)cc1 | 20.2 | 2.31 µM [rising, full curve, poor fit] | 
18 | Cn1cccc1C(=O)OCC(=O)Nc1ccc2c(c1)CCC2 | -12.1 | 0.00461 µM [falling, full curve, poor fit] | 
19 | CN(CCCC(=O)Nc1ccc(Br)cc1F)S(=O)(=O)c1ccccc1 |  | 4.11 µM [falling, full curve] | 
20 | Fc1c(F)c(C(F)(F)F)c(F)c(F)c1N1CCN(c2ccc3nnc(C(F)(F)F)n3n2)CC1 | 4.33 | 2.06 µM [rising, partial curve, poor fit] | 

Single values from above.
O=C(NCC(=O)N(c1cccnc1)C(C(=O)NC1CCCC1)c1ccc(F)cc1)c1ccco1 (stereo not given) | AC50 [1]: 0.651 µM [rising, partial curve]
O=S(=O)(c1ccc(SCCOc2ccc(Cl)cc2)nc1)N1CCCC1 | AC50 [1]: 0.92 µM [rising, full curve, poor fit]

(more compounds)

Row | Structure (SMILES) | cell number change [%] | AC50 [1] | AC50 [2]
21 | CC(C)=CC(=O)OCC(=O)Nc1ccc(Cl)cn1 | -6.71 | 16.4 µM [falling, partial curve] | 1.64 µM [falling, partial curve]
22 | O=C(NC1CCN(C(=O)Nc2ccccc2)CC1)C1CCCCC1 | -12.1 | 29.1 µM [falling, single point] | 
23 | CN(CCNS(=O)(=O)c1ccc2c(c1)oc(=O)n2C)Cc1ccccc1 | 1.57 |  | 0.651 µM [falling, single point]
24 | Cc1ccc(CNC(=O)c2cc(-c3ccccc3)n(Cc3cc(C)no3)n2)cc1 |  | 1.64 µM [falling, partial curve] | 
25 | C=CCOc1ccc(C2=NO[C@@H]3[C@@H]4C[C@@H]([C@H]5C(=O)N(C)C(=O)[C@@H]45)[C@H]23)cc1 | 45.9 | 29.1 µM [rising, single point] | 20.6 µM [rising, single point]
26 | O=C(CN1CCN(c2ccccn2)CC1)Nc1cc(F)ccc1F |  | 7.31 µM [falling, single point] | 
27 | CSc1nnc(-c2cc(Br)ccc2N=Cc2c(C)[nH]n(-c3ccccc3)c2=O)c(=O)[nH]1 | -13.5 | 3.66 µM [falling, single point] | 
28 | Cc1ccc(OCCC(=O)Nc2ccc(S(=O)(=O)Nc3nccs3)cc2)cc1 | 8.81 | 9.2 µM [rising, partial curve] | 
29 | CC(C)c1cc(C(N)=O)c(NC(=O)C2CCC2)s1 |  |  | 1.84 µM [rising, partial curve]
30 | O=C1C(Cl)=C(Nc2ccccc2O)C(=O)N1CCc1ccccc1 | -52.5 | 29.1 µM [falling, single point] | 29.1 µM [falling, single point]
31 | Cc1ccc(-c2nc(NC(=O)CSc3nnc4scc(-c5ccccc5)n34)ns2)cc1 | -1.43 | 0.103 µM [rising, full curve, poor fit] | 
32 | CCN(CC)C(=O)CSc1nc(O)cc(=O)n1-c1ccccc1OC | 4.35 |  | 
33 | Cn1c(/C=N/NC(=O)c2ccccc2)nc2ccccc21 | 10.1 | 29.1 µM [falling, single point] | 
34 | O=C(c1ccc(Cl)c(Cl)c1)N1CCC(O)(CN2CCOCC2)CC1 | -1.77 | 1.3 µM [falling, single point] | 0.116 µM [falling, full curve]
35 | CC(=O)Nc1sc2c(c1C#N)CC(C)(C)NC2(C)C | 0.286 | 29.1 µM [falling, single point] | 
36 | CCC1(CC)NC(=O)N(CC(=O)NCc2ccc3c(c2)OCO3)C1=O |  |  | 0.103 µM [rising, full curve, poor fit]
37 | O=C(CSc1cn(CCNC(=O)c2cccs2)c2ccccc12)NCC1CCCO1 (stereo not given) |  | 6.51 µM [rising, single point] | 3.26 µM [rising, single point]
38 | O=C(CC1Sc2ccccc2NC1=O)NCc1ccc(Cl)cc1 (stereo not given) | 6.51 |  | 
39 | NS(=O)(=O)c1ccc(N/C=C\C(=O)c2ccc3ccccc3c2)cc1 | 189 | 25.9 µM [rising, partial curve] | 16.4 µM [rising, partial curve]
40 | O=C(Nc1ccccc1)c1cc2c(=O)c3ccccc3oc2nc1C(F)(F)F | -5.35 | 29.1 µM [rising, single point] | 

Row | Structure (SMILES) | cell number change [%] | AC50 [1] | AC50 [2]
41 | CCOC(=O)C1=c2/c(=C/c3ccncc3)c(N)c(C(=O)OC)n2C(=O)C(c2ccncc2)S1 (stereo not given) | -54.7 |  | 
42 | O=C(CN1C(=O)NC2(CCCCC2)C1=O)N1CCN(S(=O)(=O)c2ccc(F)c(F)c2F)CC1 |  |  | 1.84 µM [rising, single point]
43 | CCOC(=O)CC(=O)CSc1nc2ccc(C)cc2cc1C#N | 23 | 14.6 µM [rising, partial curve] | 
44 | CCOC(=O)c1cnc2ccc(OCC)cc2c1NCc1ccccc1OC | 16 | 0.291 µM [rising, partial curve, poor fit] | 
45 | CCN(c1ccccc1)S(=O)(=O)c1ccc(NC(=O)c2nc(S(C)(=O)=O)ncc2Cl)cc1 | 61.1 |  | 
46 | Cc1cc(C)n2c(Br)c(CN3CCCC(C)C3)nc2n1 (stereo not given) |  | 0.58 µM [rising, single point] | 0.58 µM [rising, single point]
47 | CC(NC(=O)c1cc2ccccc2o1)c1cccs1 (stereo not given) | 6.13 | 6.51 µM [rising, single point] | 
48 | COc1ccc(C(=O)CCC(=O)Nc2ccc(Cl)cc2)cc1 | 35.4 | 9.2 µM [rising, single point] | 
49 | CSc1nnc(NC(=O)c2nc(S(=O)(=O)Cc3cccc(C)c3)ncc2Cl)s1 | -27.7 | 3.66 µM [falling, partial curve] | 0.461 µM [falling, full curve, poor fit]
50 | CCOC(=O)c1cnc(-n2nc(C)cc2C)nc1N(CC)CC | -2.66 | 29.1 µM [rising, single point] | 
51 | O=C(O)CCCC(=O)N1N=C(c2ccco2)CC1c1ccco1 (stereo not given) | -2.36 | 25.9 µM [rising, single point] | 
52 | O=S(=O)(c1cccs1)N1CN(CC2CCCO2)c2nc3ccccc3nc21 (stereo not given) | 12.5 | 1.3 µM [rising, partial curve] | 0.92 µM [rising, full curve, poor fit]
53 | COc1cc(NC(=O)c2ccno2)cc(C(=O)Nc2cccc(C(F)(F)F)c2)c1 | 5.17 | 2.59 µM [rising, single point] | 
54 | CC(CN1CCCCC1)OC(=O)c1cccc(F)c1 (stereo not given) | 24.3 | 0.082 µM [rising, full curve, poor fit] | 
55 | CCOC(=O)c1cccc(NC(=O)CCNS(=O)(=O)c2cc(Br)cnc2N)c1 | -0.989 |  | 
56 | Cc1ccc(S(=O)(=O)N(C)c2ccc(OCC(=O)Nc3nc4c(ccc5ccccc54)s3)cc2)cc1 | -30.3 |  | 13 µM [falling, partial curve, poor fit]
57 | Cc1ccccc1-c1nc(-c2ccccn2)no1 |  |  | 6.51 µM [rising, single point]
58 | O=C(Nc1ccc2ccccc2c1)N1CCCN(CCOc2ccccc2)CC1 | -11.8 | 0.103 µM [rising, full curve, poor fit] | 
59 | CCN1CCN(CC(=O)Nc2nc3ccc(C)cc3s2)CC1 | -13 | 0.00651 µM [falling, full curve, poor fit] | 
60 | CC(C)c1ccc(N(CC(=O)NCc2ccco2)C(=O)CCC(=O)Nc2nccs2)cc1 | 3.97 | 16.4 µM [rising, partial curve] | 
